# Experimental data: paper doi:10.1101/182204
# No constants are given. Whether binding was seen depends on the method and setting. Some results given as binding are weak or reduced against the parent protein; the word gives no strength. Sequences can lack the tags named with a protein.
# T1: MBP-LATS2 (UniProt Q9NRM7)
# T1 sequence: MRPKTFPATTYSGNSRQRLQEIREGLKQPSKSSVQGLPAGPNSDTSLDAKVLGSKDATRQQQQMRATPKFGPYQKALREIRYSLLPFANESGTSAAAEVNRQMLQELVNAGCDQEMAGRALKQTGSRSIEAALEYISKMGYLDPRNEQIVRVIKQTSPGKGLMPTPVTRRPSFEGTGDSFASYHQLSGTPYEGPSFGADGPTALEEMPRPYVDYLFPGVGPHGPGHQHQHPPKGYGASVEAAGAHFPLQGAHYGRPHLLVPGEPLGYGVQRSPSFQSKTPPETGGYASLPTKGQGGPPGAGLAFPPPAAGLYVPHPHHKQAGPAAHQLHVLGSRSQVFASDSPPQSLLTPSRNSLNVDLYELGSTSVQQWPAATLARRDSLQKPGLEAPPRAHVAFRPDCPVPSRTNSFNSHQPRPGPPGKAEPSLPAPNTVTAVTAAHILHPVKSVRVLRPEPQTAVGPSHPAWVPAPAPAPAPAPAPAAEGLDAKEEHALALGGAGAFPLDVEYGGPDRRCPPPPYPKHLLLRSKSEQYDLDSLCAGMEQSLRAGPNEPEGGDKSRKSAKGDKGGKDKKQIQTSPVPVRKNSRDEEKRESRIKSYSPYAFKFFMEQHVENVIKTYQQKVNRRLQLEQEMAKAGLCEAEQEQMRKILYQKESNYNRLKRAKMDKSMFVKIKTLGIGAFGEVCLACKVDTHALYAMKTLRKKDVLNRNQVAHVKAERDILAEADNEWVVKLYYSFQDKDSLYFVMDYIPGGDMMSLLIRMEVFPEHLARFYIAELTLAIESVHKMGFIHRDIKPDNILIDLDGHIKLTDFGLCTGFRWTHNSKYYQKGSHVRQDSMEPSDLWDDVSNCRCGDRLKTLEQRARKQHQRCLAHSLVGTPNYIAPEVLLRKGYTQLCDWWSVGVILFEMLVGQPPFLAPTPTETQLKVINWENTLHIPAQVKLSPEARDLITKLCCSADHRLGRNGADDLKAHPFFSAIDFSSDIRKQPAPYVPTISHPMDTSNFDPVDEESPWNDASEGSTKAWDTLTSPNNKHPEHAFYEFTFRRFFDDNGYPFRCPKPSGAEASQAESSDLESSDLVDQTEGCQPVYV
# B1: GST-TRIP6 (protein, UniProt Q15654 1-476)
# chain: MSGPTWLPPKQPEPARAPQGRAIPRGTPGPPPAHGAALQPHPRVNFCPLPSEQCYQAPGGPEDRGPAWVGSHGVLQHTQGLPADRGGLRPGSLDAEIDLLSSTLAELNGGRGHASRRPDRQAYEPPPPPAYRTGSLKPNPASPLPASPYGGPTPASYTTASTPAGPAFPVQVKVAQPVRGCGPPRRGASQASGPLPGPHFPLPGRGEVWGPGYRSQREPGPGAKEEAAGVSGPAGRGRGGEHGPQVPLSQPPEDELDRLTKKLVHDMNHPPSGEYFGQCGGCGEDVVGDGAGVVALDRVFHVGCFVCSTCRAQLRGQHFYAVERRAYCEGCYVATLEKCATCSQPILDRILRAMGKAYHPGCFTCVVCHRGLDGIPFTVDATSQIHCIEDFHRKFAPRCSVCGGAIMPEPGQEETVRIVALDRSFHIGCYKCEECGLLLSSEGECQGCYPLDGHILCKACSAWRIQELSATVTTDC
# B2: MOB1A-6xHis (protein, UniProt Q9H8S9 1-216)
# chain: MSFLFSSRSSKTFKPKKNIPEGSHQYELLKHAEATLGSGNLRQAVMLPEGEDLNEWIAVNTVDFFNQINMLYGTITEFCTEASCPVMSAGPRYEYHWADGTNIKKPIKCSAPKYIDYLMTWVQDQLDDETLFPSKIGVPFPKNFMSVAKTILKRLFRVYAHIYHQHFDSVMQLQEEAHLNTSFKHFIFFVQEFNLIDRRELAPLQELIEKLGSKDR
# Target: T1, MBP-LATS2
# Assay: pull-down
row,Binder,binding
1,B1,binds
2,B2,binds
